Reference: patent US5972599

Sequences of proteins named here, by UniProt entry; tags and fusion partners are left off. Residues count along the entry.
UniProt P01375, 77-233: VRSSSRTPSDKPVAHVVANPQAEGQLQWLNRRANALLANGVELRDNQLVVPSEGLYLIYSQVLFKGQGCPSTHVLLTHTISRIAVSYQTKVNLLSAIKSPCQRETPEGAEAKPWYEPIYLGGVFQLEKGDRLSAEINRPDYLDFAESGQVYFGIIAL

Assays:
[1] = molecular target: TNF-alpha (Homo sapiens) (UniProt P01375); assay: filter binding; details: purified recombinant protein, protein details: Genzyme or R&D Systems; for binding result: 2'-F all C and U, NB, 2'F version
[2] = molecular target: T1, IL-10 (Mus musculus) (UniProt P18893); assay: filter binding; details: 2'-F all C and U; does not bind mIL-10 with high affinity; purified recombinant protein; protein details: R & D Systems
T1 sequence (looked up, limits assumed): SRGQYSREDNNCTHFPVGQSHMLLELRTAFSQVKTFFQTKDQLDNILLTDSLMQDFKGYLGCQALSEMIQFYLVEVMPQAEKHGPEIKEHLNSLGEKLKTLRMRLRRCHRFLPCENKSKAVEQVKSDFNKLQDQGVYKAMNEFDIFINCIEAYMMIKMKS

Row | Sequence | pKd ([1]; no Kd shown means above 1 uM) | further results
1 | GGGAGCUCAGAAUAAACGCUCAACGUCGACGCACUGUGCCGCCUCACACACGCUUCGACAUGAGGCCCGGAUCCGGC [TNF 2C] | < 6.00 | 
2 | GGGAGCUCAGAAUAAACGCUCAAUGUCGAGUGCGAUGGAGGAGUAGGGAUGCAUUCGACAUGAGGCCCGGAUCCGGC [TNF 18C 2'F] |  | binding result ([1]; variant of TNF 18C): no binding
3 | GGGAGCUCAGAAUAAACGCUCAAUCUCAUGCUCGCGUGCGUCGCCUCAACCAUUCGACAUGAGGCCCGGAUCCGGC [TNF 10A] | < 6.00 | 
4 | GGGAGCUCAGAAUAAACGCUCAAGGUGUGCCCCUACGUGCGGCCCUUCGUUUAUUCGACAUGAGGCCCGGAUCCGGC [TNF 13C] | < 6.00 | 
5 | GGGAGCUCAGAAUAAACGCUCAACUAGUUCAACCGUCCCUUCUAACAACCGUCUUCGACAUGAGGCCCGGAUCCGGC [TNF 15C 2'F] |  | binding result ([1]; variant of TNF 15C): no binding
6 | GGGAGCUCAGAAUAAACGCUCAAGUGGAGGGUACGUGGAGGGGAGAGCGAUAUUCGACAUGAGGCCCGGAUCCGGC [TNF 9A] | < 6.00 | 
7 | GGGAGCUCAGAAUAAACGCUCAACGCCGAGACCCACCUCAUAACACCGCUACCUUCGACAUGAGGCCCGGAUCCGGC [TNF 10C 2'F] |  | binding result ([1]; variant of TNF 10C): no binding
8 | GGGAGCUCAGAAUAAACGCUCAAUGAGGCGCGCCACAGGAUGGCCCUCAACCCUUCGACAUGAGGCCCGGAUCCGGC [TNF 11C 2'F] |  | binding result ([1]; variant of TNF 11C): no binding
9 | GGGAGCUCAGAAUAAACGCUCAAGCGCUUGACCAUUUCGUAGGGUCGCCCUUGUUCGACAUGAGGCCCGGAUCCGGC [TNF 2A] | < 6.00 | 
10 | GGGAGCUCAGAAUAAACGCUCAACUAGGCCCACCGUCCCUUCUAACAACGUCUUCGACAUGAGGCCCGGAUCCGGC [TNF 4C 2'F] |  | binding result ([1]; variant of TNF 4C): no binding
11 | GGGAGCUCAGAAUAAACGCUCAAGCGAACGUCAUGCCGCCUCAUCAUGCCACGUUCGACAUGAGGCCCGGAUCCGGC [TNF 3C] | < 6.00 | 
12 | GGGAGCUCAGAAUAAACGCUCAAGUCGCUCGAUCGUUUCAUGCCCGUCCGACCUUCGACAUGAGGCCCGGAUCCGGC [TNF 18A] | < 6.00 | 
13 | GGGAGCUCAGAAUAAACGCUCAAUCCCUCAGUGUCAAGUGCGUCGCCUCAGCAUUCGACAUGAGGCCCGGAUCCGGC [TNF 11A] | < 6.00 | 
14 | GGGAGCUCAGAAUAAACGCUCAAUGUCGAUCGUGUCAAGGUCCGUCCUACUUCUUCGACAUGAGGCCCGGAUCCGGC [TNF 19C 2'F] |  | binding result ([1]; variant of TNF 19C): no binding
15 | GGGAGCUCAGAAUAAACGCUCAACGGGUGAAUCACGGCUGGUGCGUUGCCCCUUCGACAUGAGGCCCGGAUCCGGC [TNF 1C] | < 6.00 | 
16 | GGGAGCUCAGAAUAAACGCUCAACGUUGAACGCUUGGUUUCAUGUCCCUCGCCUUCGACAUGAGGCCCGGAUCCGGC [TNF 14A] | < 6.00 | 
17 | GGGAGCUCAGAAUAAACGCUCAAGGUGUGCCAAAGGCCCUUGAGAGAGGCGUAUUCGACAUGAGGCCCGGAUCCGGC [TNF 24A] | < 6.00 | 
18 | GGGAGCUCAGAAUAAACGCUCAAUGUCAUGCAUGUGUGUCGCCUCAUCACGCAUUCGACAUGAGGCCCGGAUCCGGC [TNF 5A] | < 6.00 | 
19 | GGGAGCUCAGAAUAAACGCUCAAUUCGAAGCCACGUUUCAUGUCCGUCGCUGCUUCGACAUGAGGCCCGGAUCCGGC [TNF 7A] | < 6.00 | 
20 | GGGAGCUCAGAAUAAACGCUCAACGUGAUUUGGCCACGGGAAAGAGCCAUACCUUCGACAUGAGGCCCGGAUCCGGC [TNF 13A] | < 6.00 | 
21 | GGGAGCUCAGAAUAAACGCUCAAACGGCUGACAACGGCUGGACUUGCGUAUUGUUCGACAUGAGGCCCGGAUCCGGC [TNF 1A] | < 6.00 | 
22 | GGGAGCUCAGAAUAAACGCUCAAGGUGUGCCCAAGGCCCUUGAGAGAGGCGUGUUCGACAUGAGGCCCGGAUCCGGC [TNF 20A] | < 6.00 | 
23 | GGGAGCUCAGAAUAAACGCUCAAGUCCGCAUGAUGCUUCGAACAGCAUACAACUUCGACAUGAGGCCCGGAUCCGGC [TNF 12C 2'F] |  | binding result ([1]; variant of TNF 12C): no binding
24 | GGGAGCUCAGAAUAAACGCUCAAGUCCACACUUUGCCGAGCGUCCUAGUGUUCGACAUGAGGCCCGGAUCCGGC [TNF 28A] |  | pKd ([1]; no value shown, but printed sequence identical to 8C (430 nM)): < 6.00
25 | GGGAGACAAGAAUAAACGCUCAAACAUCGUAUAACUCUAAGGGCCUGGAUAUACGAUGAAUUCGACAGGAGGCUCACAACAGGC [IL-10 ligand 43] |  | binding result [2]: binds more weakly

pKd: −log10 of the molar value. For some of these results: No signal at the amounts used counts as a negative. For some of these results: Weaker means in comparison with the reference protein, sequence or condition of that experiment. For some of these results: Where a protein sequence is shown, tags need not be part of it.
